Some results were stated once for a whole list of compounds, not compound by compound. Some compounds share one range, which may span the group rather than tell each member.
Test system: Diamondback Moth (DBM)—Plutella Xylostella
Test: Diamondback Moth (DBM) plant feeding damage test on radish plants
Assay type: in vivo
Conditions: sprayed at 250 ppm, 1 mL per test unit, 12-14 day old radish plant pre-infested with 10-15 neonate larvae, held 6 days at 25° C. and 70% relative humidity, replicated three times

Compound: CC(C)N(C)C(=O)c1cccc(Cl)c1NC(=O)c1ccc(C(F)(F)F)cc1 [Compound 170]
- Plant feeding damage visually assessed on a scale of 0-10 (excellent levels of plant protection: ratings of 0-1, 10% or less feeding damage): 0-1

Compound: CSCC(C)NC(=O)c1cccc(C)c1NC(=O)c1cc(C(F)(F)F)nn1-c1ccccc1Cl (stereo not shown) [Compound D115]
- Plant feeding damage visually assessed on a scale of 0-10 (excellent levels of plant protection: ratings of 0-1, 10% or less feeding damage): 0-1

Compound: CCc1nc(C(C)C)ncc1C(=O)Nc1c(C)cccc1C(=O)NC(C)C [Compound C7]
- Plant feeding damage visually assessed on a scale of 0-10 (excellent levels of plant protection: ratings of 0-1, 10% or less feeding damage): 0-1

Compound: Cc1cccc(C(=O)NC(C)C)c1NC(=O)c1ccc(-c2ccccc2)nc1Cl [Compound B61]
- Plant feeding damage visually assessed on a scale of 0-10 (excellent levels of plant protection: ratings of 0-1, 10% or less feeding damage): 0-1

Compound: Cc1cccc(C(=O)NC(C)C)c1NC(=O)c1ccc(C(F)(F)F)nc1-n1cccn1 [Compound B64]
- Plant feeding damage visually assessed on a scale of 0-10 (excellent levels of plant protection: ratings of 0-1, 10% or less feeding damage): 0-1

Compound: Cc1cccc(C(=O)NC(C)C)c1NC(=O)c1ccc(C(F)(F)F)cc1C(F)(F)F [Compound 164]
- Plant feeding damage visually assessed on a scale of 0-10 (excellent levels of plant protection: ratings of 0-1, 10% or less feeding damage): 0-1

Compound: Cc1cc(C(=O)Nc2c(Br)cccc2C(=O)NC(C)C)n(-c2ccccc2)n1 [Compound D29]
- Plant feeding damage visually assessed on a scale of 0-10 (excellent levels of plant protection: ratings of 0-1, 10% or less feeding damage): 0-1

Compound: Cc1cccc(C(=O)NC(C)C)c1NC(=O)c1ccc(C2CC2)nc1C [Compound B44]
- Plant feeding damage visually assessed on a scale of 0-10 (excellent levels of plant protection: ratings of 0-1, 10% or less feeding damage): 0-1

Compound: Cc1cccc(C(=O)NCc2ccco2)c1NC(=O)c1cc(C(F)(F)F)nn1-c1ccccc1Cl [Compound D126]
- Plant feeding damage visually assessed on a scale of 0-10 (excellent levels of plant protection: ratings of 0-1, 10% or less feeding damage): 0-1

Compound: CC(C)NC(=O)c1cccc(Cl)c1NC(=O)c1ccc(C(F)(F)F)cc1 [Compound 160]
- Plant feeding damage visually assessed on a scale of 0-10 (excellent levels of plant protection: ratings of 0-1, 10% or less feeding damage): 0-1

Compound: CCc1nc(C(F)(F)F)ccc1C(=O)Nc1c(C)cccc1C(=S)NC(C)C [Compound B75]
- Plant feeding damage visually assessed on a scale of 0-10 (excellent levels of plant protection: ratings of 0-1, 10% or less feeding damage): 0-1

Compound: Cc1cc(C(=O)Nc2c(C)cccc2C(=O)NC(C)C)n(-c2ccccc2)n1 [Compound D5]
- Plant feeding damage visually assessed on a scale of 0-10 (excellent levels of plant protection: ratings of 0-1, 10% or less feeding damage): 0-1

Compound: CCCNC(=O)c1cccc(C)c1NC(=O)c1ccc(OC(F)(F)F)cc1 [Compound 32]
- Plant feeding damage visually assessed on a scale of 0-10 (excellent levels of plant protection: ratings of 0-1, 10% or less feeding damage): 0-1

Compound: CC(C)NC(=O)c1cccc(Cl)c1NC(=O)c1cc(C(F)(F)F)nn1C [Compound D3]
- Plant feeding damage visually assessed on a scale of 0-10 (excellent levels of plant protection: ratings of 0-1, 10% or less feeding damage): 0-1

Compound: Cc1cccc(C(=O)NC2CC2)c1NC(=O)c1cc(C(F)(F)F)nn1-c1ccccc1Cl [Compound D118]
- Plant feeding damage visually assessed on a scale of 0-10 (excellent levels of plant protection: ratings of 0-1, 10% or less feeding damage): 0-1

Compound: CCc1cccc(C(=O)NC(C)CSC)c1NC(=O)c1ccc(C(F)(F)F)cc1C (stereo not shown) [Compound 202]
- Plant feeding damage visually assessed on a scale of 0-10 (excellent levels of plant protection: ratings of 0-1, 10% or less feeding damage): 0-1

Compound: Cc1cccc(C(=O)NC(C)C)c1NC(=O)c1cc(C(F)(F)F)nn1-c1c(Cl)cccc1Cl [Compound D84]
- Plant feeding damage visually assessed on a scale of 0-10 (excellent levels of plant protection: ratings of 0-1, 10% or less feeding damage): 0-1

Compound: Cc1cccc(C(=O)NC(C)C)c1NC(=O)c1ccc(C(F)(F)F)cc1 [Compound 4]
- Plant feeding damage visually assessed on a scale of 0-10 (excellent levels of plant protection: ratings of 0-1, 10% or less feeding damage): 0-1

Compound: Cc1cccc(C(=O)NC(C)c2ccccc2)c1NC(=O)c1ccc(C(F)(F)F)cc1 (stereo not shown) [Compound 167]
- Plant feeding damage visually assessed on a scale of 0-10 (excellent levels of plant protection: ratings of 0-1, 10% or less feeding damage): 0-1

Compound: CC(C)N(C)C(=O)c1cccc(C(F)(F)F)c1NC(=O)c1ccc(OC(F)(F)F)cc1 [Compound 96]
- Plant feeding damage visually assessed on a scale of 0-10 (excellent levels of plant protection: ratings of 0-1, 10% or less feeding damage): 0-1

Compound: Cc1cccc(C(=O)N(C)C(C)C)c1NC(=O)c1cc(C(F)(F)F)nn1-c1ccccc1Cl [Compound D122]
- Plant feeding damage visually assessed on a scale of 0-10 (excellent levels of plant protection: ratings of 0-1, 10% or less feeding damage): 0-1

Compound: Cc1cccc(C(=O)NC(C)C)c1NC(=O)c1ccc(C(F)(F)F)nc1-n1cncn1 [Compound B48]
- Plant feeding damage visually assessed on a scale of 0-10 (excellent levels of plant protection: ratings of 0-1, 10% or less feeding damage): 0-1

Compound: COc1nc(C(F)(F)F)ncc1C(=O)Nc1c(C)cccc1C(=O)NC(C)C [Compound C3]
- Plant feeding damage visually assessed on a scale of 0-10 (excellent levels of plant protection: ratings of 0-1, 10% or less feeding damage): 0-1

Compound: Cc1cccc(C(=O)NC(C)C)c1NC(=O)c1cnc(C2CC2)nc1-c1ccccc1 [Compound C11]
- Plant feeding damage visually assessed on a scale of 0-10 (excellent levels of plant protection: ratings of 0-1, 10% or less feeding damage): 0-1

Compound: C=CCNC(=O)c1cccc(C)c1NC(=O)c1cc(C(F)(F)F)nn1-c1ccccc1Cl [Compound D125]
- Plant feeding damage visually assessed on a scale of 0-10 (excellent levels of plant protection: ratings of 0-1, 10% or less feeding damage): 0-1

Compound: Cc1cccc(C(=O)NC(C)C)c1NC(=O)c1cnc(C(F)(F)F)nc1C [Compound C1]
- Plant feeding damage visually assessed on a scale of 0-10 (excellent levels of plant protection: ratings of 0-1, 10% or less feeding damage): 0-1

Compound: Cc1ccc(C(=O)Nc2c(C)cccc2C(=O)NC(C)C)c(-c2ccccn2)n1 [Compound B40]
- Plant feeding damage visually assessed on a scale of 0-10 (excellent levels of plant protection: ratings of 0-1, 10% or less feeding damage): 0-1

Compound: C#CCNC(=O)c1cccc(C)c1NC(=O)c1ccc(OC(F)(F)F)cc1 [Compound 35]
- Plant feeding damage visually assessed on a scale of 0-10 (excellent levels of plant protection: ratings of 0-1, 10% or less feeding damage): 0-1

Compound: COc1nc(C(F)(F)F)ccc1C(=O)Nc1c(C)cccc1C(=O)NC(C)C [Compound B28]
- Plant feeding damage visually assessed on a scale of 0-10 (excellent levels of plant protection: ratings of 0-1, 10% or less feeding damage): 0-1

Compound: Cc1cccc(C(=O)NC(C)C)c1NC(=O)c1ccc(Cl)nc1 [Compound B14]
- Plant feeding damage visually assessed on a scale of 0-10 (excellent levels of plant protection: ratings of 0-1, 10% or less feeding damage): 0-1

Compound: Cc1cccc(C(=O)NC(C)(C)C)c1NC(=O)c1cc(C(F)(F)F)nn1-c1ccccc1Cl [Compound D78]
- Plant feeding damage visually assessed on a scale of 0-10 (excellent levels of plant protection: ratings of 0-1, 10% or less feeding damage): 0-1

Compound: Cc1cccc(C(=O)NC(C)CO)c1NC(=O)c1ccc(C(F)(F)F)nc1C (stereo not shown) [Compound B35]
- Plant feeding damage visually assessed on a scale of 0-10 (excellent levels of plant protection: ratings of 0-1, 10% or less feeding damage): 0-1

Compound: Cc1cccc(C(=O)NC(C)C)c1NC(=O)c1cc(C(F)(F)F)nn1-c1ccccc1Br [Compound D58]
- Plant feeding damage visually assessed on a scale of 0-10 (excellent levels of plant protection: ratings of 0-1, 10% or less feeding damage): 0-1

Compound: Cc1cccc(C(=O)NC(C)C)c1NC(=O)c1ccccc1OC(F)(F)F [Compound 9]
- Plant feeding damage visually assessed on a scale of 0-10 (excellent levels of plant protection: ratings of 0-1, 10% or less feeding damage): 0-1

Compound: Cc1cccc(C(=O)NC(C)C)c1NC(=O)c1ccc(C(F)(F)C(F)(F)F)nc1C(C)C [Compound B66]
- Plant feeding damage visually assessed on a scale of 0-10 (excellent levels of plant protection: ratings of 0-1, 10% or less feeding damage): 0-1

Compound: Cc1nc(C(F)(F)F)ccc1C(=O)Nc1c(OC(F)F)cccc1C(=O)NC(C)C [Compound B16]
- Plant feeding damage visually assessed on a scale of 0-10 (excellent levels of plant protection: ratings of 0-1, 10% or less feeding damage): 0-1

Compound: Cc1cccc(C(=O)NC(C)C)c1NC(=O)c1ccc(C(F)(F)F)cc1C(=O)N(C)C [Compound 248]
- Plant feeding damage visually assessed on a scale of 0-10 (excellent levels of plant protection: ratings of 0-1, 10% or less feeding damage): 0-1

Compound: Cc1cccc(C(=O)NC(C)C)c1NC(=O)c1sc(Cl)nc1C [Compound G3]
- Plant feeding damage visually assessed on a scale of 0-10 (excellent levels of plant protection: ratings of 0-1, 10% or less feeding damage): 0-1

Compound: CC(C)NC(=O)c1cccc(Cl)c1NC(=O)c1ccc(C(F)(F)F)cc1-n1ccc(C(F)(F)F)n1 [Compound 232]
- Plant feeding damage visually assessed on a scale of 0-10 (excellent levels of plant protection: ratings of 0-1, 10% or less feeding damage): 0-1

Compound: Cc1cccc(C(=O)NC(C)C)c1NC(=O)c1cc(C(F)(F)F)nn1-c1ccccn1 [Compound D30]
- Plant feeding damage visually assessed on a scale of 0-10 (excellent levels of plant protection: ratings of 0-1, 10% or less feeding damage): 0-1

Compound: Cc1cccc(C(=O)NCC(C)C)c1NC(=O)c1cc(C(F)(F)F)nn1-c1ccccc1Cl [Compound D120]
- Plant feeding damage visually assessed on a scale of 0-10 (excellent levels of plant protection: ratings of 0-1, 10% or less feeding damage): 0-1

Compound: Cc1cccc(C(=O)NC(C)C)c1NC(=O)c1ccc(C(F)(F)F)cc1-n1ccnc1C [Compound 223]
- Plant feeding damage visually assessed on a scale of 0-10 (excellent levels of plant protection: ratings of 0-1, 10% or less feeding damage): 0-1

Compound: CCC(C)c1ccn(-c2cc(C(F)(F)F)ccc2C(=O)Nc2c(C)cccc2C(=O)NC(C)C)n1 (stereo not shown) [Compound 244]
- Plant feeding damage visually assessed on a scale of 0-10 (excellent levels of plant protection: ratings of 0-1, 10% or less feeding damage): 0-1

Compound: Cc1cccc(C(=O)NC(C)(C)C)c1NC(=O)c1ccccc1OC(F)(F)F [Compound 13]
- Plant feeding damage visually assessed on a scale of 0-10 (excellent levels of plant protection: ratings of 0-1, 10% or less feeding damage): 0-1

Compound: Cc1cccc(C(=O)NC(C)C)c1NC(=O)c1cc(C(F)(F)F)nn1-c1ccccc1Cl [Compound D33]
- Plant feeding damage visually assessed on a scale of 0-10 (excellent levels of plant protection: ratings of 0-1, 10% or less feeding damage): 0-1

Compound: Cc1cc(C)c(NC(=O)c2ccccc2OC(F)(F)F)c(C(=O)NC(C)C)c1 [Compound 39]
- Plant feeding damage visually assessed on a scale of 0-10 (excellent levels of plant protection: ratings of 0-1, 10% or less feeding damage): 0-1

Compound: CC(C)NC(=O)c1cccc(Cl)c1NC(=O)c1cc(C(F)(F)F)nn1-c1ccccc1Br [Compound D59]
- Plant feeding damage visually assessed on a scale of 0-10 (excellent levels of plant protection: ratings of 0-1, 10% or less feeding damage): 0-1

Compound: Cc1nc(C(F)(F)F)ccc1C(=O)Nc1c(F)cccc1C(=O)NC(C)C [Compound B32]
- Plant feeding damage visually assessed on a scale of 0-10 (excellent levels of plant protection: ratings of 0-1, 10% or less feeding damage): 0-1

Compound: Cc1cn(-c2cc(C(F)(F)F)ccc2C(=O)Nc2c(C)cccc2C(=O)NC(C)C)cn1 [Compound 231]
- Plant feeding damage visually assessed on a scale of 0-10 (excellent levels of plant protection: ratings of 0-1, 10% or less feeding damage): 0-1

Compound: COCC(C)NC(=O)c1cccc(Cl)c1NC(=O)c1ccc(C(F)(F)F)nc1C (stereo not shown) [Compound B5]
- Plant feeding damage visually assessed on a scale of 0-10 (excellent levels of plant protection: ratings of 0-1, 10% or less feeding damage): 0-1

Compound: Cc1cc(Br)c(NC(=O)c2ccc(C(F)(F)F)cc2)c(C(=O)NC(C)(C)C)c1 [Compound 144]
- Plant feeding damage visually assessed on a scale of 0-10 (excellent levels of plant protection: ratings of 0-1, 10% or less feeding damage): 0-1

Compound: CC(C)NC(=O)c1cccc(Cl)c1NC(=O)c1nc(C(F)(F)F)nn1-c1ccccc1Cl [Compound J4]
- Plant feeding damage visually assessed on a scale of 0-10 (excellent levels of plant protection: ratings of 0-1, 10% or less feeding damage): 0-1

Compound: Cc1cc(C(F)(F)F)ccc1C(=O)Nc1c(Cl)cccc1C(=O)NC(C)CO (stereo not shown) [Compound 214]
- Plant feeding damage visually assessed on a scale of 0-10 (excellent levels of plant protection: ratings of 0-1, 10% or less feeding damage): 0-1

Compound: CCc1ccccc1-n1nc(C(F)(F)F)cc1C(=O)Nc1c(Cl)cccc1C(=O)NC(C)C [Compound D97]
- Plant feeding damage visually assessed on a scale of 0-10 (excellent levels of plant protection: ratings of 0-1, 10% or less feeding damage): 0-1

Compound: Cc1cc(C(=O)Nc2c(C)cccc2C(=O)NC(C)C)c(Cl)s1 [Compound M1]
- Plant feeding damage visually assessed on a scale of 0-10 (excellent levels of plant protection: ratings of 0-1, 10% or less feeding damage): 0-1
